Reference: patent US7407988B2, “Carbamic acid compounds comprising a sulfonamide linkage as HDAC inhibitors” (Topotarget UK Limited, priority 2000, dated 2008)
Like-named read-outs stand apart in the source and are kept apart here. For at least one compound, name, drawing or mass did not settle the structure.

Test system: HDAC (HeLa cell extract)
Experiment: Primary assay: deacetylase activity, HeLa cell extract as source of HDAC
Format: biochemical, human
Text: Briefly, this assay relies on the release of radioactive acetate from a radioactively labelled histone fragment by the action of HDAC enzyme. Test compounds, which inhibit HDAC, reduce the yield of radioactive acetate. Signal (e.g., scintillation counts) measured in the presence and absence of a test compound provide an indication of that compound's ability to inhibit HDAC activity. Decreased activity indicates increased inhibition by the test compound. […]
After purification of the radiolabelled histone fragment, it was incubated with a source of HDAC (e.g., an extract of HeLa cells (a rich source of HDAC), recombinantly produced HDAC1 or HDAC2) and any released acetate was extracted into an organic phase and quantitatively determined using scintillation counting. By including a test compound with the source of HDAC, that compound's ability to inhibit the HDAC was determined. […]
A source of HDAC (e.g., 2 μL of crude HeLa extract, 5 μL of HDAC1 or HDAC2; in elution buffer, as above) was incubated with 3 μL of radioactively labelled peptide along with appropriate dilutions of candidate compounds (1.5 μL) in a total volume of 150 μL of buffer (20 mM Tris pH 7.4, 10% glycerol). […] Radioactivity was measured using a Tri-Carb 21 00TR Liquid Scintillation Analyzer (Packard). […]

Q: Which IC50 (Table 1, read-out: HDAC Inhibition (IC50 unless otherwise specified) HeLa) does the source give for `CN(c1ccccc1)S(=O)(=O)c1cccc(/C=C/C(=O)NO)c1` [PX105685] here?
A: 238 nM

Q: And the IC50 (comparative tables, HDAC inhibition, read-out: HeLa IC50)?
A: 238 nM
